# Assay results: PubChem BioAssay AID2283220 (EPA ToxCast)
# By UniProt entry, the sequences of proteins in these tests, tags left out. Where a name states a change or a piece, a line headed by the entry shows the natural chain unless it says otherwise.
# UniProt O00141: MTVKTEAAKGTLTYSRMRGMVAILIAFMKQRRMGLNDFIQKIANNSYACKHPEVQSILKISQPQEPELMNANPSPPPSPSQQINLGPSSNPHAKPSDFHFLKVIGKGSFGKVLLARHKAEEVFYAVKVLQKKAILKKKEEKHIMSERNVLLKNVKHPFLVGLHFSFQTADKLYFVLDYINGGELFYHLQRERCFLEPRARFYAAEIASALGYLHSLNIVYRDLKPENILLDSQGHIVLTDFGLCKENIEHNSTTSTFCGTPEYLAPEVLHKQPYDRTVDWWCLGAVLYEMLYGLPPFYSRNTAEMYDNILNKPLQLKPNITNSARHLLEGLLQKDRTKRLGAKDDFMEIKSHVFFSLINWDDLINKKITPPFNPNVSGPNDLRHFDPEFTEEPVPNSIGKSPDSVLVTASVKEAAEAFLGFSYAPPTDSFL
# The list shows a part of the results, in another mix than the full data. Inconclusive results are not listed. The source made the active and inactive calls. How the source made its calls: active means hit-call score of the fitted dose curve at least 0.9, where 1 is the maximum; inconclusive means response in the unintended direction; inactive means score below 0.9.
# Target: human Serum/Glucocorticoid Regulated Kinase 1 (SGK1), SGK1 (gene 6446) (UniProt O00141)
# Assay: NVS_ENZ_hSGK1: NovaScreen (NVS) Enzymatic Assay for human Serum/Glucocorticoid Regulated Kinase 1 (SGK1)
# Experimental: NVS_ENZ_hSGK1 is a biochemical, single-readout assay that uses extracted gene-proteins in a cell-free assay. Measurements were taken 1 hour after chemical dosing in a 96-well plate.NVS_ENZ_hSGK1 is one of one assay component(s) measured or calculated from the NVS_ENZ_hSGK1 assay. It is designed to make measurements of enzyme activity, a form of enzyme reporter, as detected with fluorescence intensity signals by Fluorescence and electrophoretic mobility shift technology.Data from the assay component NVS_ENZ_hSGK1 was analyzed into 1 assay endpoint. This assay endpoint, NVS_ENZ_hSGK1, was analyzed in the positive analysis fitting direction relative to DMSO as the negative control and baseline of activity. Using a type of enzyme reporter, loss-of-signal activity can be used to understand changes in the enzymatic activity as they relate to the gene SGK1. Furthermore, this assay endpoint can be referred to as a primary readout, because this assay has produced […] where this one serves a enzymatic activity function. To generalize the intended target to other relatable targets, this assay endpoint is annotated to the kinase intended target family, where the subfamily is serine/threonine kinase. […]
smiles,measurement,value
S=C(S)NCCNC(=S)S.[Mn+2].[S-]C([S-])=NCCN=C([S-])[S-].[Zn+2],AC50,active: 11.4 µM
